T1: Ubiquitin-conjugating enzyme E2 J2 (UBE2J2) (human (endogenous in human liver cancer cell lines HCCLM3 or SMMC7721)) (UniProt Q8N2K1)
T1 sequence: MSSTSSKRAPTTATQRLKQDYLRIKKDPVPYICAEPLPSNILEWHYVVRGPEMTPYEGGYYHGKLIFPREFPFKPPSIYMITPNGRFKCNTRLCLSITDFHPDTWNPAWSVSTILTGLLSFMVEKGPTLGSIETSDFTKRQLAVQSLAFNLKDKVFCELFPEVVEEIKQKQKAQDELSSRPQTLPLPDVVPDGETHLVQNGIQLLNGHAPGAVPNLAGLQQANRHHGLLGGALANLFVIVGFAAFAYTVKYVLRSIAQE

By UniProt entry, the sequences of proteins in these tests, tags left out.
UniProt O95832: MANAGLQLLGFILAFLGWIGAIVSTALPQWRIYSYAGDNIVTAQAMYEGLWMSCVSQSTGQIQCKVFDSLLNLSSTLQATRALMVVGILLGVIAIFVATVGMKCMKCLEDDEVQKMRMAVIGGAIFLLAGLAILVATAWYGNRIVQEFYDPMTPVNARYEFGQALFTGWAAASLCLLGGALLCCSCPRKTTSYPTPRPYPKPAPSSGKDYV
UniProt O95863: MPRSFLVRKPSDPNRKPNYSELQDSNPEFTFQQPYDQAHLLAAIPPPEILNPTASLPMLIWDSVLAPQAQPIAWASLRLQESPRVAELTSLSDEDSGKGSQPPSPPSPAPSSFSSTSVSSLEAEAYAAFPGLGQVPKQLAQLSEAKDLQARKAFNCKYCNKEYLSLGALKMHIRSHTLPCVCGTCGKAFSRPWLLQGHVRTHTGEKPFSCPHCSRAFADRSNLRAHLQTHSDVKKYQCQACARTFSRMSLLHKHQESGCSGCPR
UniProt P08670: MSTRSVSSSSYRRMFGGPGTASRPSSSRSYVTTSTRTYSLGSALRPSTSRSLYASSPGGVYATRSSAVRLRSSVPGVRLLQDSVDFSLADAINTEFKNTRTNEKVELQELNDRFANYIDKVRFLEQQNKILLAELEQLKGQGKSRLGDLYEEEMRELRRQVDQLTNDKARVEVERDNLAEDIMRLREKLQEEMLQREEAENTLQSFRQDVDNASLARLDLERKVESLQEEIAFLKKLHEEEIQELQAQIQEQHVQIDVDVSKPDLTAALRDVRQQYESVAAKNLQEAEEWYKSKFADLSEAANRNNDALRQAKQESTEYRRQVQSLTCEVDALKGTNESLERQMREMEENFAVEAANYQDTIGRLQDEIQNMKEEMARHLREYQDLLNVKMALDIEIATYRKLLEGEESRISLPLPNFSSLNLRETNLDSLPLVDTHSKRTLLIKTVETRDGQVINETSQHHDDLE
UniProt P35222: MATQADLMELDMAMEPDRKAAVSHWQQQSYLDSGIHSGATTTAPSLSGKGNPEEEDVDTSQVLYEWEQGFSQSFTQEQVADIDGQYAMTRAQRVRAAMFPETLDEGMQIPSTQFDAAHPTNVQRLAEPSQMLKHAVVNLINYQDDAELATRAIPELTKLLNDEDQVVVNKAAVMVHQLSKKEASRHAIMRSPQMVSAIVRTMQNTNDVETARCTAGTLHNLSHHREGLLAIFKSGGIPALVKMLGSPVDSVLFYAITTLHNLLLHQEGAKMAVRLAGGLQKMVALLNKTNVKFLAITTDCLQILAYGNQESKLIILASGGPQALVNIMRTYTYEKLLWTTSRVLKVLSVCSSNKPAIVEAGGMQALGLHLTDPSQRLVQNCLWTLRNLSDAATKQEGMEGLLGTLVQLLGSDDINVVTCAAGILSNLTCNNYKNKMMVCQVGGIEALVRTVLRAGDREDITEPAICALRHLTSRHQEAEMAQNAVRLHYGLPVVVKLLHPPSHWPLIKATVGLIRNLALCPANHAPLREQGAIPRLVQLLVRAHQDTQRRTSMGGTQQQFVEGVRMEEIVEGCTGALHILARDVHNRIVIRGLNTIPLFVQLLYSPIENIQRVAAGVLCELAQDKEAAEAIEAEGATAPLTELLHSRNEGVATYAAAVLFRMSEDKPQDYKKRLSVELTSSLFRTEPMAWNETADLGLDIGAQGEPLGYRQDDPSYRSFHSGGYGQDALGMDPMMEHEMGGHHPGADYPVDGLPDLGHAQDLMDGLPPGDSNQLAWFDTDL

B1: slug (protein, UniProt O43623 1-268)
chain: MPRSFLVKKHFNASKKPNYSELDTHTVIISPYLYESYSMPVIPQPEILSSGAYSPITVWTTAAPFHAQLPNGLSPLSGYSSSLGRVSPPPPSDTSSKDHSGSESPISDEEERLQSKLSDPHAIEAEKFQCNLCNKTYSTFSGLAKHKQLHCDAQSRKSFSCKYCDKEYVSLGALKMHIRTHTLPCVCKICGKAFSRPWLLQGHIRTHTGEKPFSCPHCNRAFADRSNLRAHLQTHSDVKKYQCKNCSKTFSRMSLLHKHEESGCCVAH

Results are given in words; binding and its absence hold for the method and conditions named.

This assay concerns the target T1, Ubiquitin-conjugating enzyme E2 J2 (UBE2J2) (human (endogenous in human liver cancer cell lines HCCLM3 or SMMC7721)). In words: SPR; Biacore X100; anti-UBE2J2 antibody (and normal IgG) immobilised on a CM5 chip by EDC/NHS, blocked with 3% BSA; concentrated RIPA cell lysate injected, washed with HEPES buffer (50 mM HEPES, pH 7.4, 150 mM NaCl); proteins held with UBE2J2 detected by injecting antibodies against them.
As to CLDN-1 (from UniProt O95832 1-211), the binding result is “no binding”.

Take snail (from UniProt O95863 1-264): the binding entry is reported as “no binding”.

vimentin (from UniProt P08670 1-466): the binding entry is given as “no binding”.

Turning to β-catenin (from UniProt P35222 1-781), the binding entry was “no binding”.

In the case of B1, the binding result was “no binding”.

The values above are taken from PMC5641085.
